Source: article PMC4831024
No constants are given. Whether binding was seen depends on the method and setting. In cells and extracts the contact can be indirect. Some entries that bind do so weakly or less than the wild type. Where a sequence is shown, tags or fusion partners need not be part of it.

Amino acid sequences for entries named in this document (tags omitted).
UniProt P13010: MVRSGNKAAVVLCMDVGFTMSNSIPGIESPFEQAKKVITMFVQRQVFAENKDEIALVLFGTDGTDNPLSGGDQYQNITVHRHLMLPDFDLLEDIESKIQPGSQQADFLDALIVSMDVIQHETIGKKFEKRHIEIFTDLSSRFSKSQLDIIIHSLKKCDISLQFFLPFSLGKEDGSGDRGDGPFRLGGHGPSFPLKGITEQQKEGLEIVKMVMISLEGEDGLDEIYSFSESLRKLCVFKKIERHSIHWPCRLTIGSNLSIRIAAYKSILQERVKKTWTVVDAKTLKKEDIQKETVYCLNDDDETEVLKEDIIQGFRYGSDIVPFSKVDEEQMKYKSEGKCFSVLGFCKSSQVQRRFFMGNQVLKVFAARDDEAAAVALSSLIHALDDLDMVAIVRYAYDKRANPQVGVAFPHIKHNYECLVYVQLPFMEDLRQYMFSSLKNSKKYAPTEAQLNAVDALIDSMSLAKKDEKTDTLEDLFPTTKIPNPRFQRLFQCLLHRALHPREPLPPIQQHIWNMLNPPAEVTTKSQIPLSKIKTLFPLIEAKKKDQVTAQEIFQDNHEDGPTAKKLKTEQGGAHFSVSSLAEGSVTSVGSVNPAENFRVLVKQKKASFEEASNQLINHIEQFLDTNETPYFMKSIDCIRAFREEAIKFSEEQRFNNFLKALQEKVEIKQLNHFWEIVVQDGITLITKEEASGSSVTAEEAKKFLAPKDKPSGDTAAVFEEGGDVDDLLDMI

Experiments:
[1] = biological target: T1, GFP-tagged WRN-X (XLF-like motif of WRN) (human); test: co-IP; GFP-tagged proteins recovered on GFP-TRAP beads from transfected HEK293T extract (25 mM Tris-HCl pH 7.5, 150 mM NaCl, 10% glycerol, 0.5% Triton X-100, 1 mM DTT), 1 h at 4 °C; immunoblot for GFP, Ku80 and DNA–PKcs; Ku quantified by ImageJ relative to wild-type WRN
T1 sequence: SKKLMDKTKRGGLFS

[2] = biological target: T2, GFP-tagged WRN-cA (C-terminal KBM of WRN) (human); test: as above
T2 sequence: TSSAERKRRLPVWFAK

binding [1]: no binding
binding [2]: binds
Substance: Ku80, endogenous (from UniProt P13010 1-732)
